Measured values from PubChem BioAssay AID2685 (National Center for Advancing Translational Sciences (NCATS), 2010).
Out of some 320,000 compounds screened, about 2,100 (0.66%) were called active. Inconclusive results, whose numbers are uncertain, are shown with a selection of clear calls. The call rests on the fitted dose curve; in most records, active means well fitted inhibition curve with a large enough effect in the signal ratio, with a control signal flat (not every such curve was filed as active); inconclusive means small, poorly fitted or top-dose-only effect, or effect the other way, or a change in a side signal; inactive means flat fitted curve, though single readings scatter; the % refers to the signal ratio. Where the call is inconclusive, the potency comes from a doubtful curve fit.

Assay: qHTS Assay for Lipid Storage Modulators in Drosophila S3 Cells
Conditions: BODIPY lipid droplet fluorescence, 18-24 h, cells fed with added oleic acid; lipid storage change, negative = inhibition: at 46.1 µM (top of the series) unless noted
Method in brief: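 Drosophila S3 cells loaded with oleic acid (400 uM, as added) and compounds at several concentrations; lipid droplets imaged by 488-nm laser-scanning cytometry, 500–530 nm intensity and object ratio to cell channel. Percent activity normalized to 20 uM Triacsin C.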
On the % scale 0 is the no-effect control and ±100 the full control effect; potency means the concentration at half of the fitted maximal effect.

Lipid storage change, negative = inhibition, inactive:
CC(=O)C1=C(Nc2ccccc2)CC(C)(O)C(C(C)=O)C1c1ccccc1 (centres undefined)
Cc1ccc(NC(=O)N2CCN(C(=O)c3ccco3)CC2)cc1Cl
CCCCn1c(CN2CCN(c3cccc(Cl)c3)CC2)nc2c1c(=O)n(C)c(=O)n2C

Lipid storage change, negative = inhibition, inconclusive:
COc1ccc(C(=O)N/N=C(\C)Cn2cnc([N+](=O)[O-])n2)cc1 21.3%
CCCCn1c(N)c(N(CCOC)C(=O)c2cccc(-n3cnnn3)c2)c(=O)[nH]c1=O
O=C(CN1C(=O)CS/C1=C\c1nc(-c2ccc(Cl)cc2)cs1)Nc1cccnc1Cl -4.7%
CCCOc1ccc(CCCN=C(N)N)cc1Cl -8.33%
COC(=O)c1cc(-c2cccc(OC)c2)c2c(=O)[nH]c(=O)n(C)c2n1 -63.2%
O=[N+]([O-])c1ccc([N+](=O)[O-])c(Nc2ccc(N3CCOCC3)cc2)c1 102%
C=CCn1c(C(CCCC)CC(C)O)n[nH]c1=S (centres undefined) 18.1%
O=C(O)c1ccc(S(=O)(=O)c2ccc3c(c2)C(=O)N(c2ccc(Br)cc2)C3=O)cc1 34.8%
COC(=O)COc1ccc(Cl)cc1C1Nc2ccccc2C(=O)N1c1ccc(OC)cc1 (centres undefined) 104%
Cc1cccc(-c2cc3c(N=O)c4ccccc4c-3n[nH]2)c1 3.77%
CC(=O)NCCSCCNC(C)=O 71.4%
CSC[C@H](NC(=O)COc1cc2c(c3oc(=O)c(C)c(C)c13)CCC(C)(C)O2)C(=O)O 12%
[O-]/C(=C(\C(=S)Nc1cccc2ccccc12)[n+]1ccccc1)c1ccc(OC(F)F)cc1 -2.49%
CCOC(=O)C(CC)(CC)C(=O)/C=C/c1ccc(OC)cc1 15.2%
COc1ccc(OC)c(S(=O)(=O)NCCc2csc(-c3cccnc3)n2)c1 13.9%
COc1ccc(NC(=O)CN2C(=O)NC(C)(c3ccccc3)C2=O)c(OC)c1 (centres undefined) 21.2%
Cc1cccc(-c2nnc(-c3cccc(NC(=O)Cc4cccs4)c3)o2)c1 -43.1%
Cc1cnc(C(=O)OC(C)C(=O)Nc2ccc(Cl)cn2)cn1 (centres undefined)
COc1ccc(OC)c(CNS(=O)(=O)c2cc(CN3C(=O)c4cccnc4C3=O)ccc2OC)c1 -42.5%
COc1cc(NC(=S)N2CCCC(C)C2)c(OC)cc1Cl (centres undefined) -8.32%
CC1C(=O)N(Cc2cccc(F)c2)c2ccccc2N1C(=O)c1ccccc1 (centres undefined) 21.7%
COc1ccc(C(C(=O)NC2CCCC2)N(C(=O)c2ccco2)c2cc3c(cc2C(C)=O)OCO3)cc1 (centres undefined) 47.6%
CC(=O)N1CCc2[nH]c3ccc(C)cc3c2C1 42.5%
CNc1n[nH]c(=S)s1 21.4%
Cc1ccc(N2CC(C(=O)OCc3nc(N)nc(Nc4ccccc4C)n3)CC2=O)cc1 (centres undefined) -24.9%
CCCc1cc(=O)[nH]c(SCC(=O)Nc2c(C)cccc2C)n1 3.17%
COc1ccccc1Cc1nc(-c2ccc(Br)o2)no1 1.23%
CCOC(=O)c1ccc(NC(=S)NCc2ccc(S(N)(=O)=O)cc2)cc1 3.34%
CCCCc1ccc(-n2c(Cc3cccs3)n[nH]c2=S)cc1 14.2% [at 9.22 µM]
COc1ccc(OCCCCN(C)Cc2ccccc2)cc1 -15.1%
CC(=O)Nc1cc2nn(-c3ccccc3)nc2cc1Cl -26.7%
COc1ccc(CN2CCN(Cc3ccc(C(F)(F)F)cc3)CC2)c(OC)c1 -28.4%

3 structures from above, ordered by length of the SMILES, largest number first:
Lipid storage change, negative = inhibition, inconclusive:
CSC[C@H](NC(=O)COc1cc2c(c3oc(=O)c(C)c(C)c13)CCC(C)(C)O2)C(=O)O 12%
O=C(O)c1ccc(S(=O)(=O)c2ccc3c(c2)C(=O)N(c2ccc(Br)cc2)C3=O)cc1 34.8%
Cc1cnc(C(=O)OC(C)C(=O)Nc2ccc(Cl)cn2)cn1 (centres undefined)

Next part.

Potency, inconclusive:
CC(C)(C)OC(=O)N1CCN(C(=O)c2[nH]cnc2C(=O)N[C@@H](Cc2ccccc2)C(=O)OCc2ccccc2)CC1 0.116 µM [falling, full curve, poor fit]
CCNc1ccc(S(=O)(=O)N(C)C)cc1NCC(=O)Nc1ccc(Br)cc1F 29.1 µM [falling, single point]
COc1ccc(CCN2C(=O)CSC2=Nc2ccc(C(C)C)cc2)cc1OC 29.1 µM [falling, single point]
COc1cc(OCC(=O)NC(C)C)cc2c1C(=O)O[C@@H](C)CCCC(=O)CCCCC2 4.61 µM [activator, single point]
CC(C)(CNC(=O)c1ccc(Br)o1)CNC(=O)c1ccc(Br)o1 0.58 µM [falling, single point]
Cc1ccccc1N(C)S(=O)(=O)c1nnc(NC(=O)c2ccco2)s1 0.164 µM [falling, full curve, poor fit]
Cc1cccc(NC(=O)CNC(=O)c2cccc(-n3cccc3)c2)c1C 1.84 µM [activator, partial curve]
Nc1[nH]n2c(=O)cc(-c3ccccc3)nc2c1N=Nc1ccc2c(c1)OCO2 32.6 µM [falling, single point]
O=c1c2ccccc2oc2ccc(Oc3ccccc3)cc12 18.4 µM [activator, single point]
CCOc1ncccc1C(=O)N1CCN(S(=O)(=O)c2ccc3c(c2)OCCO3)CC1 29.1 µM [falling, single point]
O=C1C=C(NCc2ccc(Cl)c(Cl)c2)C2(CCCCC2)O1 13 µM [activator, single point]
COc1ccc(CNC(=O)CN2C(=O)CSc3ccc(S(=O)(=O)N4CCOCC4)cc32)cc1 0.517 µM [activator, full curve, poor fit]
O=C(COc1ccc2c3c(c(=O)oc2c1)CCC3)NC1CCN(Cc2ccccc2)CC1 29.1 µM [activator, single point]
COCCN(CCOC)c1cc(C)c(C#N)c2nc3ccccc3n12 0.13 µM [falling, full curve, poor fit]
